# According to US20170051149A1, “AZOARYLS AS REVERSIBLY MODULATABLE TUBULIN INHIBITORS” (ECOLE NORMALE SUPERIEURE DE LYON, priority 2014, published 2017):
# For at least one compound, name, drawing or mass did not settle the structure.
# Experiment: photoisomerisation: photostationary state, calculated φ(λ) and E(λ), reversible cycling
# Assay type: physicochemical
# Conditions: irradiation at 384 nm; 33 μM, PBS 20% MeCN, 37° C.
# Protocol: In a simple analysis of the PSS(λ) and E(λ), it was approximated that ΦEZ and ΦZE (the quantum efficiencies of the photoisomerisations trans->cis and cis->trans, respectively) are equal and independent of wavelength, and also that the kinetics of spontaneous reversion could be ignored (eg. high-intensity light source). A function φ(λ) was then calculated as per: […]
# If ΦEZ and ΦZE are equal and independent of wavelength, φ(λ) gives the true PSS(λ). The wavelength independence of ΦEZ and ΦZE may be an acceptable approximation in regions of relatively strong absorption within the visible spectrum. […] Indeed, the calculated φ(λ) were later confirmed by in cellulo experiments to give reliable indications of favourable wavelengths for bulk trans->cis and bulk cis->trans photoisomerisation, which is the benchmark for a suitable analysis of the PSS(λ). […]
# Also following the assumption that ΦEZ and ΦZE are equal and independent of wavelength, a photoisomerisation efficiency E(λ) was calculated as per: […]
# A(λstrong) was measured over time in the UV-Vis cuvette in non-degassed PBS left open to the atmosphere, […], at 37° C., while the monochromator was used to apply λirrad alternating between two values λ1 and λ2, chosen to induce net trans->cis and net cis->trans isomerisation respectively. […]
compound,measurement,value
"CCN(CC)c1ccc2c(-c3ccccc3C(=O)N3CCN(CCCOc4c(N=Nc5cc(OC)c(OC)c(OC)c5)ccc(OC)c4C)CC3)c3ccc(=[N+](CC)CC)cc-3oc2c1.CCN(CC)c1ccc2c(-c3ccccc3C(=O)N3CCN(CCCOc4c(N=Nc5cc(OC)c(OC)c(OC)c5)ccc(OC)c4C)CC3)c3ccc(=[N+](CC)CC)cc-3oc2c1.O=C[O-].O=C[O-] [I.25, N-(6-(diethylamino)-9-(2-(4-(3-(3-methoxy-2-methyl-6-((3,4,5-trimethoxyphenyl)diazenyl)phenoxy)propyl)piperazine-1-carbonyl)phenyl)-3H-xanthen-3-ylidene)-N-ethylethanaminium bis(formate) salt]",ratio of cis:trans isomers,> 3:1
